Reference: PubChem BioAssay AID1259308 (NCATS, 2017)

- Screen: 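Genes whose loss raises luciferase production in HEK293 cells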 (primary screen)
- Cells: human HEK293 embryonic kidney cells stably expressing firefly luciferase (HEK-CMV-Luc2-Hygro)
- Reagent: single siRNA against human genes, 0.8 pmol siRNA per well
- Time to read-out: 72 h
- Read-out: 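Reporter luminescence and viable-cell signal on separate replicate plates, given as percent of non-targeting control and median/MAD z-scores, plus per-cell luciferase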
- Scale: total luciferase, z-score and total luciferase, % of control: higher = more reporter protein produced; luciferase per cell, z-score: higher = more reporter output per viable cell; viable cells, % of control: higher = more viable cells
- Call rule: 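An siRNA counts as active if its total luciferase robust z-score exceeds 3; genes with two or more such siRNAs out of three were retested with fresh siRNAs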
- Calls: active = raised luciferase; inactive = no rise
The whole screen tested about 59,000 reagents; shown is a part drawn at random. About 1,510 of them (2.6%) count as active. 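Calls use total luciferase alone and ignore viability, so some active siRNAs may act by altering cell number.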 Reagents against one gene are numbered here. Reagent sequences are not shown.

| Gene | reagent no. | total luciferase, z-score | total luciferase, % of control | luciferase per cell, z-score | viable cells, % of control | Outcome |
| --- | --- | --- | --- | --- | --- | --- |
| GDAP1 | 1 | 1.02 | 102 | 0.806 | 92.4 | inactive |
| GDAP1 | 2 | 0.0647 | 83.2 | -0.0103 | 93.2 | inactive |
| GDAP1 | 3 | 1.44 | 111 | 0.716 | 102 | inactive |
| KRTAP5-8 | 1 | -1.07 | 60.6 | -0.23 | 72 | inactive |
| KRTAP5-8 | 2 | 1.49 | 111 | 1.3 | 88.4 | inactive |
| KRTAP5-8 | 3 | 1.38 | 109 | 1.06 | 92.4 | inactive |
| RXRA | 1 | -0.0937 | 80 | 0.455 | 79.3 | inactive |
| RXRA | 2 | -1.14 | 59.1 | -1.17 | 90 | inactive |
| RXRA | 3 | 0.898 | 99.7 | 1.53 | 74.6 | inactive |
| CCL8 | 1 | -0.958 | 62.8 | -1.12 | 94.3 | inactive |
| CCL8 | 2 | -0.911 | 63.8 | -0.362 | 78.4 | inactive |
| CCL8 | 3 | 0.772 | 97.2 | 1.27 | 77.7 | inactive |
| DNASE1L2 | 1 | 1.13 | 104 | 1.44 | 79.8 | inactive |
| DNASE1L2 | 2 | -0.219 | 77.5 | 0.384 | 78.3 | inactive |
| DNASE1L2 | 3 | -0.148 | 78.9 | -0.425 | 98.7 | inactive |
| CRLF3 | 1 | 0.558 | 93 | 0.322 | 95.5 | inactive |
| CRLF3 | 2 | 0.00664 | 82 | 0.075 | 89.9 | inactive |
| CRLF3 | 3 | -0.235 | 77.2 | -0.4 | 95.9 | inactive |
| CENPX | 1 | -1.55 | 51 | -1.87 | 93.2 | inactive |
| CENPX | 2 | 0.2 | 85.9 | 0.0391 | 95 | inactive |
| CENPX | 3 | -0.966 | 62.7 | -1.13 | 94.2 | inactive |
| PRADC1 | 1 | 0.384 | 89.5 | -0.0559 | 102 | inactive |
| PRADC1 | 2 | -0.635 | 69.3 | -0.378 | 85.5 | inactive |
| PRADC1 | 3 | -0.16 | 78.7 | 1.51 | 59.1 | inactive |
| NOL4 | 1 | 0.0583 | 83 | 0.305 | 85.6 | inactive |
| NOL4 | 2 | -1.21 | 57.8 | -0.129 | 66.8 | inactive |
| NOL4 | 3 | -0.653 | 68.9 | -0.789 | 94.8 | inactive |
| H4C2 | 1 | -0.824 | 65.5 | -1.23 | 101 | inactive |
| H4C2 | 2 | 0.625 | 94.3 | 0.231 | 99.2 | inactive |
| H4C2 | 3 | -0.434 | 73.3 | -0.935 | 105 | inactive |
| SREK1 | 1 | -0.697 | 68 | -1.18 | 104 | inactive |
| SREK1 | 2 | -0.284 | 76.2 | -0.153 | 88.7 | inactive |
| SREK1 | 3 | -0.0771 | 80.4 | 0.166 | 86 | inactive |

A few values from the entries so far:
For “total luciferase, z-score”, CRLF3 #3 shows -0.235
CRLF3 #2, viable cells, % of control = 89.9
Under “total luciferase, % of control”, NOL4 #2 is entered as 57.8
Entry of GDAP1 #2 under “total luciferase, % of control”: 83.2
Result for SREK1 #1 in “total luciferase, % of control”: 68
Under “total luciferase, z-score”, PRADC1 #1 has 0.384

The results go on:
| Gene | reagent no. | total luciferase, z-score | total luciferase, % of control | luciferase per cell, z-score | viable cells, % of control | Outcome |
| --- | --- | --- | --- | --- | --- | --- |
| TECTB | 1 | -1.71 | 47.8 | -0.941 | 68.4 | inactive |
| TECTB | 2 | 1.72 | 116 | 1.13 | 96.4 | inactive |
| TECTB | 3 | 1.73 | 116 | 0.703 | 108 | inactive |
| CSNK2B | 1 | 4.74 | 176 | 3.09 | 87.3 | active |
| CSNK2B | 2 | 2.72 | 136 | 1.85 | 93.5 | inactive |
| CSNK2B | 3 | 2.49 | 131 | 3.66 | 55.9 | inactive |
| GALT | 1 | 0.734 | 96.5 | 2.19 | 60.6 | inactive |
| GALT | 2 | 1.74 | 116 | 0.918 | 102 | inactive |
| GALT | 3 | -0.596 | 70 | 0.264 | 73 | inactive |
| ASB4 | 1 | -0.0811 | 80.3 | -0.408 | 99.9 | inactive |
| ASB4 | 2 | -0.861 | 64.8 | -0.939 | 92.7 | inactive |
| ASB4 | 3 | -0.352 | 74.9 | 0.0957 | 81.6 | inactive |
| PGAM5 | 1 | 4.71 | 176 | 2.86 | 92.3 | active |
| PGAM5 | 2 | -0.55 | 70.9 | -0.966 | 102 | inactive |
| PGAM5 | 3 | -0.815 | 65.7 | -1.07 | 97.2 | inactive |
| MSLNL | 1 | -0.079 | 80.3 | 0.705 | 74.5 | inactive |
| MSLNL | 2 | -3.3 | 16.2 | -4.36 | 57 | inactive |
| MSLNL | 3 | -0.436 | 73.2 | -0.758 | 99.9 | inactive |
| LGALS14 | 1 | -0.5 | 71.9 | -0.673 | 96 | inactive |
| LGALS14 | 2 | -1.03 | 61.4 | -1.55 | 103 | inactive |
| LGALS14 | 3 | -1.51 | 51.9 | -1.57 | 87.6 | inactive |
| CCKAR | 1 | 0.953 | 101 | 0.602 | 96.2 | inactive |
| CCKAR | 2 | -0.396 | 74 | -0.777 | 101 | inactive |
| CCKAR | 3 | -1.61 | 49.8 | -1.51 | 82.8 | inactive |
